Measured values from PubChem BioAssay AID1508600 (Functional Genomics Laboratory (NCATS/FGL), 2020).
About 3,700 (7%) of roughly 53,000 sequences were called active.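 The calls were made as follows: active = gene knockdowns whose robust z-score for IL-1 alpha signal is at least 2 or at most -2, so actives lie on both sides; inactive = the rest.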 Some of the results follow.

Assay: Components of the Cytosolic LPS Sensing Pathway: Gene Identification via Genome-wide siRNA Screen;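 also: robust z of the log signal after scaling to non-targeting control siRNA wells of the plate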
Conditions: RAW264.7 macrophages, IL-1a HTRF, actives lie on both sides, screened at 100 nM (by protocol), cells primed 5 h with Pam3CSK4 first
Outline: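 RAW264.7 mouse macrophages reverse-transfected with single siRNAs (100 nM final) for 48h, primed with Pam3CSK4 for 5 hours, then transfected with LipidA for 24 hour. Supernatant IL-1a read by HTRF; values normalized to negative-control median, log-transformed robust z-scores.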

Sequence	z-score
GGGUAUAAUCCACAUCCAATT against Tyms	inactive: 1.46
GGUGACCCAGUUGCUGAAUTT against Ahnak	inactive: 1.02
GGCAGCAUGAUUAUUUCAATT against Gm4861	inactive: -0.0747
CCCUGAUUCCAAGUCAUCATT against Lect2	inactive: -0.617
GCCCUUGACUUCAAUACCCTT against Shc1	inactive: 0.913
GGAAAACGAGUCAAACUCATT against Lnx2	active: 3.4
CGGACUCAUUCAGCAACCUTT against Ttc39a	inactive: -1.19
GCGUGCAUAUAUCCAAUGCTT against Tardbp	inactive: 1.36
CCUUGAGUGAAAGAAUUGATT against Tmprss11d	inactive: -0.609
GCGAUACCGUUCUCUGUACTT against Lexm	inactive: -0.749
GGCUUGAGCUGGGAUACAATT against Hnrnpdl	inactive: 1
GGAGAUAGGAUUGCUUGCATT against Mthfd1l	active: -2.3
GGUCACAGUUGACAAAUGGTT against Cdc16	inactive: -0.282
GCAUCAAAAUCGGUUUCUGTT against Lkaaear1	inactive: 0.759
GCUGUAUGCCUGUUUAGUGTT against Prr15	inactive: -0.807
GCUUGGUGUUAAUUUGUUGTT against Btf3l4	inactive: 0.549
GGAAAAUUGGACCAAUUUCTT against Ric3	inactive: -0.339
GCCUGCAUUGCAAAUGAAATT against Krtap13-1	inactive: -0.257
GCAGACUCUGUAUACCAUGTT against Rfx4	inactive: 0.21
GGGCAUUCAAAGAUGACUATT against Mrpl39	inactive: 1.22
GCAUGUCAUACCAGCUAGUTT against Nkd2	inactive: -1.5
GGCAGUUGAUUCCUUUAAATT against Baz1a	inactive: 0.0425
CCUAGUUAUCAGAAGAAAATT against Pax7	inactive: 0.738

Sequence	z-score
GGAACAGCAAAUGUUCUUUTT against Rab38	inactive: 1.16
GGAAAACAACGAAUUGCUCTT against Uri1	inactive: 0.791
CCCAACCAGACCAAUCCACTT against Enam	inactive: -0.893
CCGUAUCAACCUCAUCUAUTT against Mob3c	inactive: -0.00254
GGAACAGGAAUAUGAAAGATT against Olfr836	inactive: -0.903
CCCUUUAUAAGGAAAUGUGTT against Ces2b	inactive: -0.728
GGUUACUCCUUUUUAUGUATT against Bex1	inactive: -1.1
GGAGCUACUGAGAACAUAATT against Hoxd4	inactive: -1.25
GGAAACCAAUAGGAAGUAUTT against Ubqln1	inactive: -0.659
GGGCUCUUUCUACCAAUGUTT against Calhm6	inactive: 1.23
GGCCUGUUUUGAAGUAGAATT against B630019K06Rik	inactive: 0.352
CGAUAGCGAAUUUACAGUUTT against Prdx6	inactive: 1.89
CCAGAUAUCUGGGUACUUUTT against Zfp353-ps	inactive: -1.85
GGGACUUACAAGCAGAUUCTT against Casp9	inactive: -0.399
GCUCACAAAGCAAAGACAATT against 3110009E18Rik	inactive: 0.636
GGAAAAGACAGUCUCUGAATT against Ubxn11	inactive: -0.00536
GGAGAGCUAGCCUUAAUAATT against Bspry	active: 4.21
GCUCAGCUACAAUAUGUUCTT against BC051019	inactive: 0.14
GACCUUCGACACCGACAAATT against Rtl8c	active: 3.29
GGAAAACAACAUGAUCGUGTT against Nadk	inactive: -0.137
GGAUGUACCCUACUUGCUATT against B3gnt8	inactive: 0.774
CCUGAAGAUUUUAUGGACGTT against Gpatch1	inactive: 0.523
CGGACUCUGUGUUCUUAGATT against Alg3	active: 2.68

Sequence	z-score
GCUCUAUCACUCGUUGAAGTT against Trim27	inactive: 0.542
GCUCAUUGCCAAGAUGACATT against Tcea3	inactive: -0.801
GGUGCCCACCAAUCAACAUTT against Slc9a3r1	inactive: -0.667
GGCCAUCUCUUCUACUGUATT against Glt28d2	inactive: 0.0935
GGACAAUGUUGAAUCCUGUTT against Rrp15	inactive: -0.155
GGCUGUUUUUACACUUCGCTT against Olfr1395	inactive: -0.0372
GGGUCAUAAAGGAUUUCAUTT against Ppih	inactive: 0.704
GGAGCUUCAGCAUGAAAACTT against Ulk2	inactive: 0.918
CCAUUUGGGACUAUAGACGTT against Celf3	inactive: -0.0104
GCAAGACUGACCUAGAUUATT against Rasal2	inactive: -1.48
GCAGAGAUCCCUUCUACAATT against Rnf32	inactive: 0.741
GGUUGGUACAUUGUGACCUTT against Rer1	inactive: -1
GGGAUUGGUGAAGAAAAAATT against Chmp1a	inactive: -1.07
GGAGAUGCCAGAGGUCAAATT against Gzmk	active: 2.08
GGCUUAUUCCCUAAUUAAATT against Elobl	inactive: -0.521
GGAGGACUGUCCAAAAGAATT against Tnfrsf18	inactive: 1.04
CCACUAGUUAGGUACUAACTT against Ifitm6	inactive: 1.02
CGAUGAUAAAACGAACAAGTT against Plppr5	active: 2.78
GAAAUGCAACGGCCACUGCTT against Spp1	inactive: -1.38
GGAUUUCAACCUUCUUGUUTT against 2310057N15Rik	inactive: -0.448
GGUAUGAGCUGAUCAAGUATT against Slc27a2	inactive: 1.67
GAGGUUCAGUUUUGGCUGGTT against Olfr558	inactive: 0.417

Looked up above.
z-score, GGAGAUAGGAUUGCUUGCATT against Mthfd1l is entered as active: -2.3
z-score, GCAGAGAUCCCUUCUACAATT against Rnf32 is entered as inactive: 0.741
z-score, GCCCUUGACUUCAAUACCCTT against Shc1 is entered as inactive: 0.913
